Experimental findings from article PMC7473519 are described below.

The target of the experiment is minichromosome maintenance complex (MCM) (human (endogenous in HEK293T and U2OS)), P49736. Nature of the experiment: co-IP; anti-MCM2 immunoprecipitation from lysate of nocodazole-arrested U2OS cells producing HA-Cdt1-WT, alone or mixed with lysate of the same cells growing asynchronously; blots for HA-Cdt1, MCM6, Geminin. As to conditions: remark: other sources report otherwise.

No constants are given. Whether binding was seen depends on the method and setting. In cells and extracts the contact can be indirect.

B1: Geminin, O75496 1-209 (protein)
chain: MNPSMKQKQEEIKENIKNSSVPRRTLKMIQPSASGSLVGRENELSAGLSKRKHRNDHLTSTTSSPGVIVPESSENKNLGGVTQESFDLMIKENPSSQYWKEVAEKRRKALYEALKENEKLHKEIEQKDNEIARLKKENKELAEVAEHVQYMAELIERLNGEPLDNFESLDNQEFDSEEETVEDSLVEDSEIGTCAEGTVSSSTDAKPCI
As to B1, the binding entry is listed as “no binding”.
